Experimental data as given in paper PMC3406092.
Results are given in words; binding and its absence hold for the method and conditions named. A result given as binding can be weak or reduced; the word gives no strength.

Biological target: T1, MecI, repressor of mecA, from S. aureus strain N315 (Staphylococcus aureus (strain N315)) (UniProt P68262)
T1 sequence: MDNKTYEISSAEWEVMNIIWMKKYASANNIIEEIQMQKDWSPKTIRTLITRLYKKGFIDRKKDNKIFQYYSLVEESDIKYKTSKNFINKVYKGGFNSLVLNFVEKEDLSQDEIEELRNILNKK
Assay: two-hybrid; bacterial two-hybrid (restoration of CyaA from T25 and T18 fusions) in E. coli BTH101; lacZ reporter read by X-gal hydrolysis in liquid cultures; fusions at the N' or C' terminals in all combinations

MecR2, small variant of prototype strain N315 (SCCmec type II) (Staphylococcus aureus (strain N315))
binding: binds
